Laboratory results as given in patent US5017689A (Arizona Technology Development Corporation, priority 1989, dated 1991).

Assay: general procedure: Boc solid-phase peptide synthesis; para-methylbenzhydrylamine resin; preformed HOBt active esters
Settings: whole synthesis, scale 0.5 mequiv

PEPTIDE1{Y.G.G.F.L.R.R.I.R.P.K.[am]}$$$$V2.0
crude mass: 0.40 g

Some peptides are written in HELM: one residue between dots, names in brackets for other building blocks, links after the first $.
